# Read-outs that look alike come from different tables or passages of the source. No constants are given. Whether binding was seen depends on the method and setting. In cells and extracts the contact can be indirect. Here binding means that the protein was enriched with, or labelled near, the bait; the list need not be complete. For some assays here: No binding means not detected with the bait.
# Protein sequences, listed by entry. Tags and fused reporters are not part of them. Lines headed by an entry give the natural chain unless they say otherwise; changes in a name come on top.
# UniProt Q88D22: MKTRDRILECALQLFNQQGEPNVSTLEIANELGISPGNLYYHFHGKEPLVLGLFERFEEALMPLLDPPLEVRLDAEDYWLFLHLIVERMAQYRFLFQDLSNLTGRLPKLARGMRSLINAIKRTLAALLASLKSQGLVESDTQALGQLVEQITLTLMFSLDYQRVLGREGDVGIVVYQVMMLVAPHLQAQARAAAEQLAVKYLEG
# UniProt Q88D21: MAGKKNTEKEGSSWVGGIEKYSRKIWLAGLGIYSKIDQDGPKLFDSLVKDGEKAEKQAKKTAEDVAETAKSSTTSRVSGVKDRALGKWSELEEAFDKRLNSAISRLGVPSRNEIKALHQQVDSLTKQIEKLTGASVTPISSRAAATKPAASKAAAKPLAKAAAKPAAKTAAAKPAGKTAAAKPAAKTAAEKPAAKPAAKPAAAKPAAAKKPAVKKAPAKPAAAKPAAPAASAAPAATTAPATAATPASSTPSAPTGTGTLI
# T1: Poly granule-associated protein PhaI (Pseudomonas putida KT2440) (UniProt Q88D20)
# T1 sequence: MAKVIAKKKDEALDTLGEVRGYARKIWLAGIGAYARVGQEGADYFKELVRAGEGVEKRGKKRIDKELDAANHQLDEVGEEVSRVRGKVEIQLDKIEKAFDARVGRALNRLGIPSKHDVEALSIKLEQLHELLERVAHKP
# T2: Peptidoglycan-associated lipoprotein, OprL/Pal (Pseudomonas putida KT2440) (UniProt P0A138)
# T2 sequence: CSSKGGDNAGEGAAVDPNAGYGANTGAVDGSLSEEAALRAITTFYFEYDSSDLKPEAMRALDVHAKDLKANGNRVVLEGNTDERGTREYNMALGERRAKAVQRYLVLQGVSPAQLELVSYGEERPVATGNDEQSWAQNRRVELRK
# T3: Pyruvate dehydrogenase E1 component (Pseudomonas putida KT2440) (UniProt Q88QZ5)
# T3 sequence: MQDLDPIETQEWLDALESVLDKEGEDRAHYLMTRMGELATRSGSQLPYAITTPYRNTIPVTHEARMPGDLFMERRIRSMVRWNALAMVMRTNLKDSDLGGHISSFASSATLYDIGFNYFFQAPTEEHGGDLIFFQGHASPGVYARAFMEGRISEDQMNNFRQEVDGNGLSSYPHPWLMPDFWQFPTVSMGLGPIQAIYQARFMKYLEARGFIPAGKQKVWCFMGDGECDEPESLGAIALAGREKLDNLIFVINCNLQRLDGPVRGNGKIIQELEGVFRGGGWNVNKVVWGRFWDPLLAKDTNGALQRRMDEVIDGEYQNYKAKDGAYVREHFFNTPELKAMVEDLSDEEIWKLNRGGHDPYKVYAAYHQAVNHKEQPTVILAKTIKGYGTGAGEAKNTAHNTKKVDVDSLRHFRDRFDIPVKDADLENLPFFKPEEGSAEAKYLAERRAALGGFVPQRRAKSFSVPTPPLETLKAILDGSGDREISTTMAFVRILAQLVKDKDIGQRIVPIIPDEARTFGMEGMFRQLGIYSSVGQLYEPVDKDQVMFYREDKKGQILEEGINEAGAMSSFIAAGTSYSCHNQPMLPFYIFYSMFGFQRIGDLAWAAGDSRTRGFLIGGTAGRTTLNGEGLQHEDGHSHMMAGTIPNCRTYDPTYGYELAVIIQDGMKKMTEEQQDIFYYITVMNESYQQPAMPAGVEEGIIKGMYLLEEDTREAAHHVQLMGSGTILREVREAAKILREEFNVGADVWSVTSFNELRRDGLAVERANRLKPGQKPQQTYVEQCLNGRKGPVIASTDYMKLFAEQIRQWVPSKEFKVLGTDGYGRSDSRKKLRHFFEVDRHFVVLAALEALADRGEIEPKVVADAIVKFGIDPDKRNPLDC
# Key:
# [1] = biological target: PHA polymerase PhaC1 (Pseudomonas putida KT2440) (UniProt Q88D25); assay: affinity purification with mass spectrometry; Round 1: baits PhaI, PhaD, PhaZ and PhaC1 with eYFP; cultures on nitrogen-limited media, harvested after 24 h; lysate on GFP-Trap agarose, 1 h at 4 °C, 10 mM Tris pH 8, 150 mM NaCl; on-bead trypsin digest, LCMS; compared with unfused eYFP null control
# [2] = biological target: T1, Poly granule-associated protein PhaI (Pseudomonas putida KT2440); assay: as above
# [3] = biological target: T2, Peptidoglycan-associated lipoprotein, OprL/Pal (Pseudomonas putida KT2440); assay: affinity purification with mass spectrometry; Round 2 (reverse orientation): baits PDH-E1, Q88F99 and OprL with eYFP; same APMS protocol as in the primary screen; compared with unfused eYFP null control
# [4] = biological target: T3, Pyruvate dehydrogenase E1 component (Pseudomonas putida KT2440); assay: as above
# [5] = biological target: T1, Poly granule-associated protein PhaI (Pseudomonas putida KT2440); assay: affinity purification with mass spectrometry; Round 1: baits PhaI, PhaD, PhaZ and PhaC1 with eYFP; cultures on nitrogen-limited media, harvested after 24 h; lysate on GFP-Trap agarose, 1 h at 4 °C, 10 mM Tris pH 8, 150 mM NaCl; on-bead trypsin digest, LCMS; compared with unfused eYFP null control; remark: listed apart in the source
binding [2],binding [4],further results,Molecule
no binding,–,binding [1]: no binding,PHA depolymerase PhaZ (from UniProt Q88D24) (enzyme)
binds,–,–,Transcription factor PhaD (from UniProt Q88D22)
no binding,–,–,PHA polymerase PhaC1 (from UniProt Q88D25) (enzyme)
binds,binds,binding [3]: binds,PHA granule-associated protein PhaF (from UniProt Q88D21)
–,no binding,–,lipoamide dehydrogenase (E3) (Pseudomonas putida KT2440 (endogenous)) (enzyme)
–,binds,–,"Poly granule-associated protein PhaI (protein, UniProt Q88D20 1-139) MAKVIAKKKDEALDTLGEVRGYARKIWLAGIGAYARVGQEGADYFKELVRAGEGVEKRGKKRIDKELDAANHQLDEVGEEVSRVRGKVEIQLDKIEKAFDARVGRALNRLGIPSKHDVEALSIKLEQLHELLERVAHKP"
–,–,binding [3]: binds,"TolB (protein, UniProt P0A173 22-433) EEKNILVTSGSDRATPIAVVPFGLQGGSVLPEDIADIIGNDLRNSGYYSPIPRQNMISQPSQASEVIFRDWKALGAQYVMVGSIVPSGGRLQVQYALFNVATEQQVLTGSVAGSTDQLRDMAHYIADQSFEKLTGIKGAFSTRMLYVTAERFSTNNTRYTLQRSDYDGARAVTLLQSREPILSPRFAPDGKRIAYVSFEQKRPRIFVQNIDTGRREQVTNFEGLNGAPAWSPDGSRLAFVLSKDGNPDIYVMNVASRQISRVTAGPGINTEPFWGKDGNTLYFTSDRGGKPQIYKQSVSGGGAERVTFVGNYNANPKLSADEKTLVMIHRQQGFTNFKVAAQDLQRGSVKILSETSLDESPTVAPNGTMLIYATRQQGRGVLMLVSLNGRVRLPLPTAQGEVREPSWSPYLN"
–,–,binding [5]: binds,"Pyruvate dehydrogenase E1 component (enzyme, UniProt Q88QZ5 1-881) MQDLDPIETQEWLDALESVLDKEGEDRAHYLMTRMGELATRSGSQLPYAITTPYRNTIPVTHEARMPGDLFMERRIRSMVRWNALAMVMRTNLKDSDLGGHISSFASSATLYDIGFNYFFQAPTEEHGGDLIFFQGHASPGVYARAFMEGRISEDQMNNFRQEVDGNGLSSYPHPWLMPDFWQFPTVSMGLGPIQAIYQARFMKYLEARGFIPAGKQKVWCFMGDGECDEPESLGAIALAGREKLDNLIFVINCNLQRLDGPVRGNGKIIQELEGVFRGGGWNVNKVVWGRFWDPLLAKDTNGALQRRMDEVIDGEYQNYKAKDGAYVREHFFNTPELKAMVEDLSDEEIWKLNRGGHDPYKVYAAYHQAVNHKEQPTVILAKTIKGYGTGAGEAKNTAHNTKKVDVDSLRHFRDRFDIPVKDADLENLPFFKPEEGSAEAKYLAERRAALGGFVPQRRAKSFSVPTPPLETLKAILDGSGDREISTTMAFVRILAQLVKDKDIGQRIVPIIPDEARTFGMEGMFRQLGIYSSVGQLYEPVDKDQVMFYREDKKGQILEEGINEAGAMSSFIAAGTSYSCHNQPMLPFYIFYSMFGFQRIGDLAWAAGDSRTRGFLIGGTAGRTTLNGEGLQHEDGHSHMMAGTIPNCRTYDPTYGYELAVIIQDGMKKMTEEQQDIFYYITVMNESYQQPAMPAGVEEGIIKGMYLLEEDTREAAHHVQLMGSGTILREVREAAKILREEFNVGADVWSVTSFNELRRDGLAVERANRLKPGQKPQQTYVEQCLNGRKGPVIASTDYMKLFAEQIRQWVPSKEFKVLGTDGYGRSDSRKKLRHFFEVDRHFVVLAALEALADRGEIEPKVVADAIVKFGIDPDKRNPLDC"
